Reference: paper doi:10.1101/2021.06.15.448428
Residue numbers refer to the chain shown, from its start. No constants are given. Whether binding was seen depends on the method and setting. In cells and extracts the contact can be indirect. Some binding calls cover weakened binding; strength is not graded here.

Protein sequences, listed by entry. Tags and fused reporters are not part of them. Lines headed by an entry give the natural chain unless they say otherwise; changes in a name come on top. Chains listed by the source or under a name are the forms on record and can include a tag or linker.
cystic fibrosis transmembrane conductance regulator (CFTR)ΔF508 (P13569, form named): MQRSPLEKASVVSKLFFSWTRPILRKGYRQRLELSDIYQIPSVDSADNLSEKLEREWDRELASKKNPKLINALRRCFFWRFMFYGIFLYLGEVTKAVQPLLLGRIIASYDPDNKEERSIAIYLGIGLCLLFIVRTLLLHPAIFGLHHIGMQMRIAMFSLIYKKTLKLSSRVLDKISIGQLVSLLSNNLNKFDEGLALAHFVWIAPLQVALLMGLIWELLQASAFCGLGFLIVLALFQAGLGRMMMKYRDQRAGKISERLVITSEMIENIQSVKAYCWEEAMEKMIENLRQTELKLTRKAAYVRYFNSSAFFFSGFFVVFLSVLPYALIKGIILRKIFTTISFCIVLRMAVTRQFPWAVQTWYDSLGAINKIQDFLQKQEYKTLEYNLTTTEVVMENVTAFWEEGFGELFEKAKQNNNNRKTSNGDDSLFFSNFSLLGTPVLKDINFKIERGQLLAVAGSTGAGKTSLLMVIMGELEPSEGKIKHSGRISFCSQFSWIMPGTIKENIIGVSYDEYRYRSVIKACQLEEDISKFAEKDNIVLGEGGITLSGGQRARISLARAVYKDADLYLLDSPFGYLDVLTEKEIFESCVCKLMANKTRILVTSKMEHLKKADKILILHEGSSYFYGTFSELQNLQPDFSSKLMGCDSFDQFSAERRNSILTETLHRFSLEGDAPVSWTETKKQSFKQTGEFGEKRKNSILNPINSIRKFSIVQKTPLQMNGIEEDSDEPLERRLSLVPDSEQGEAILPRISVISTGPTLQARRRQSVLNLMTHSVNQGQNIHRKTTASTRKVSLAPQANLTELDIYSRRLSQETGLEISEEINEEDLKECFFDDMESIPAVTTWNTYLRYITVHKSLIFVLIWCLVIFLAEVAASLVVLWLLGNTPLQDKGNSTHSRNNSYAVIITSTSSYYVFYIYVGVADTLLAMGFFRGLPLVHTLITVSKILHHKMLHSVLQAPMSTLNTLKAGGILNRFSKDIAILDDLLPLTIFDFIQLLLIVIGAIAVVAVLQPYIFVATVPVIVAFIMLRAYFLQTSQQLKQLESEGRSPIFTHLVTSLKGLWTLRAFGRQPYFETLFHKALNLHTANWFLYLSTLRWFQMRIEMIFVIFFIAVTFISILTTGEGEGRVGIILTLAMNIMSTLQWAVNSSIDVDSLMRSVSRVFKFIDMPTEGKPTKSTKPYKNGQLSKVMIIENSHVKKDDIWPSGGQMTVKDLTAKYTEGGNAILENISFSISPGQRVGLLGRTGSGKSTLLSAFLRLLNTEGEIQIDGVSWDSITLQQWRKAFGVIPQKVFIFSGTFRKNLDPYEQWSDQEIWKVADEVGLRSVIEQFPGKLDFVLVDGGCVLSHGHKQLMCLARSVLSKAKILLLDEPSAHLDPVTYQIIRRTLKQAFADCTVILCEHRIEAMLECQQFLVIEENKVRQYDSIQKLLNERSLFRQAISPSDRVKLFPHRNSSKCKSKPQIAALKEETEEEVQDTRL

Legend:
Assay in all cases: pull-down
Derlin-1 A45S (human) = biological target: T1, Derlin-1 A45S (human) (UniProt Q9BUN8)
T1 sequence: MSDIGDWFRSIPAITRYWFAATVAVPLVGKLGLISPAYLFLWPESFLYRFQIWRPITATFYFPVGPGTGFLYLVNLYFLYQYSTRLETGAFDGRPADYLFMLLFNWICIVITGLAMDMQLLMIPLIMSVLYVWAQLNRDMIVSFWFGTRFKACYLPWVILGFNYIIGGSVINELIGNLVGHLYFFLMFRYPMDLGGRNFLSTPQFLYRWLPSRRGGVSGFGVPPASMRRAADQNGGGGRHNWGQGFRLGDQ

Derlin-1 F91A (human) = biological target: T2, Derlin-1 F91A (human) (UniProt Q9BUN8)
T2 sequence: T1 sequence with S45A, F91A

Derlin-1 W53A (human) = biological target: T3, Derlin-1 W53A (human) (UniProt Q9BUN8)
T3 sequence: T1 sequence with S45A, W53A

Derlin-1 R49A (human) = biological target: T4, Derlin-1 R49A (human) (UniProt Q9BUN8)
T4 sequence: T1 sequence with S45A, R49A

binding (Derlin-1 A45S (human)): no binding | binding (Derlin-1 F91A (human)): binds | binding (Derlin-1 W53A (human)): no binding | binding (Derlin-1 R49A (human)): no binding
Substance: cystic fibrosis transmembrane conductance regulator (CFTR)ΔF508 (from UniProt P13569 1-1480)
